According to article PMC12593631:
Results are given in words; binding and its absence hold for the method and conditions named. In cells and extracts the contact can be indirect. Some results given as binding are weak or reduced against the parent protein; the word gives no strength.

By UniProt entry, the sequences of proteins in these tests, tags left out.
UniProt P11309: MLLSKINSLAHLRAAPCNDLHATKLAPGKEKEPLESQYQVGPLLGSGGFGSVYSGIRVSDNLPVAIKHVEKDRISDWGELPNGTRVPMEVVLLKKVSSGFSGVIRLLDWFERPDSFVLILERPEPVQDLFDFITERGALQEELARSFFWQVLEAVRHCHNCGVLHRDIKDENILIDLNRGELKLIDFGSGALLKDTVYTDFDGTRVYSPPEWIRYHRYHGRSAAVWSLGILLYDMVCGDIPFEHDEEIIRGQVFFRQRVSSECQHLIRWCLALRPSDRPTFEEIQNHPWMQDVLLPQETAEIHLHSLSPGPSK
UniProt P05412: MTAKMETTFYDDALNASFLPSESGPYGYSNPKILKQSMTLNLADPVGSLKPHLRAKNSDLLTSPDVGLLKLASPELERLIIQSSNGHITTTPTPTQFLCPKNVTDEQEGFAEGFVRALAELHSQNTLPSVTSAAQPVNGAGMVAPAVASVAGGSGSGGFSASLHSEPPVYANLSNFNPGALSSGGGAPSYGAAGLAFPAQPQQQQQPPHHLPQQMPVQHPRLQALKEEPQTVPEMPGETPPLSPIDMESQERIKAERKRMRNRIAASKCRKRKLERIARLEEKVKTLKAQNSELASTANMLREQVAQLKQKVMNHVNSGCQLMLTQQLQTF

Biological target: T1, Basic leucine zipper ATF-like transcription factor (BATF) (human (endogenous in HGC-27 and KATO III)) (UniProt Q16520)
T1 sequence: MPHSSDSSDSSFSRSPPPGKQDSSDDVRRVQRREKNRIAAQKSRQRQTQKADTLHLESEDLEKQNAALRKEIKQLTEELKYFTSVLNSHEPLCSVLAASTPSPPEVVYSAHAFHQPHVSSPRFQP
Assay: co-IP; cell lysate (IP lysis buffer, sonicated) incubated overnight at 4 °C with anti-BATF antibody or nonspecific IgG, protein A, four washes; immunoblot with anti-PIM1 or anti-JUN

binding	Substance
binds	proto-oncogene serine/threonine-protein kinase 1 (PIM1) (from UniProt P11309 1-313) (enzyme)
binds	Jun proto-oncogene, AP-1 transcription factor subunit (JUN) (from UniProt P05412 1-331)
